The source of these data is patent US10483329B2, “Hole transporting material, hole transporting layer, OLED display panel electronic device comprising the same” (SHANGHAI TIANMA AM-OLED CO., LTD., priority 2016, dated 2019).

One data set can be described thus: Mask cleaning effect. As to conditions: time for all material on the red light MASK of hole transporting layer 203 to be completely cleaned, ultrasonic 40 kHz, 25° C. The protocol:
(3) Mask Cleaning Effect:
the time required for all the materials on the MASK of the red light of the hole transporting layer 203 to be completely cleaned at a fixed ultrasonic frequency of 40 kHz and at a temperature of 25° C.

The nature of data set [1]: Hole mobility rate of the hole transporting material/layer. In kind it is physicochemical. As to conditions: hole transporting layer material.
Data set [2] is described as follows: Crosstalk test of OLED display panel. As to conditions: dark room, B screen, intensity ratio of green light of adjacent pixels when blue light intensity 0.1 Cd/m^2. The protocol: Performance tests of the OLED display panels in the Examples and Comparison Examples were carried out.
(2) Crosstalk test method: the program being transferred to the B screen in a dark room, testing the intensity ratio of the green light of adjacent pixels when the blue light intensity was 0.1 Cd/m^2, LGreen/LBlue;

As to `Cc1cccc(C)c1-c1ccc(N(c2ccc(-c3ccccc3)cc2)c2ccc(-c3ccc(N(c4ccc(-c5ccccc5)cc4)c4ccc(-c5c(C)cccc5C)cc4)cc3)cc2)cc1` [Comparison Example 3], the Mask cleaning time in “Mask cleaning effect” is on record as 55 s. In addition, the hole mobility rate in data set [1] is given as 3.5×10^−4 cm^2/V·S. Besides, the LGreen/LBlue in data set [2] came to 1.5%. As to `Cc1cc(-c2ccc(N(c3ccc(-c4ccccc4)cc3)c3ccc4c(c3)C(C)(C)c3ccccc3-4)cc2)cc(C)c1N(c1ccc(-c2ccccc2)cc1)c1ccc2c(c1)C(C)(C)c1ccccc1-2` [Example 1], the Mask cleaning time in the data set “Mask cleaning effect” is reported as 35 ^ s.

`Cc1cccc(-c2ccc(N(c3ccc(-c4cccc(C)c4)cc3)c3ccc4c(c3)C(C)(C)c3cc(N(c5ccc(-c6cccc(C)c6)cc5)c5ccc(-c6cccc(C)c6)cc5)ccc3-4)cc2)c1` [Example 2]: the Mask cleaning time in “Mask cleaning effect” is reported as 25 ^ s. In the case of `Cc1cccc(C)c1-c1ccc(N(c2ccc3c(c2)C(C)(C)c2ccccc2-3)c2ccc3c(c2)C(C)(C)c2cc(N(c4ccc(-c5c(C)cccc5C)cc4)c4ccc5c(c4)C(C)(C)c4ccccc4-5)ccc2-3)cc1` [Example 3], in “Mask cleaning effect”, the Mask cleaning time is 25 ^ s. For `Cc1cc(N(c2ccc3c(c2)C(C)(C)c2ccccc2-3)c2ccc3c(c2)C(C)(C)c2ccccc2-3)ccc1-c1ccc(N(c2ccc3c(c2)C(C)(C)c2ccccc2-3)c2ccc3c(c2)C(C)(C)c2ccccc2-3)cc1` [Example 4], the Mask cleaning time in the data set “Mask cleaning effect” is given as 25 ^ s.
